{"source": "PubChem BioAssay AID1259405 (NCATS, 2018)", "purpose": "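Mouse-designed siRNAs used to find CHO productivity engineering targets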 (primary screen)", "cell system": "Chinese hamster CHO-K1 ovary cells with stable secreted eGFP expression", "reagents": "single siRNA against mouse genes, 0.8 pmol siRNA per well (2 µl of 400 nM stock)", "timing": "3 days", "detection": "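Per-well intracellular GFP measured by laser scanning cytometry, plus viability from ATP luminescence, each relative to plate median of non-targeting control wells, in %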", "scale": "GFP, % of control: higher = more GFP per well, higher productivity; viability (ATP), % of control: higher = more viable cells (more ATP)", "rule for the call": "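Called active when intracellular GFP, relative to negative control, is at or above 120%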", "note": "The deposit covers about 50,000 reagents; this is a part drawn at random. In the full data, about 4,000 (8%) were called active. 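Mouse siRNA library applied to hamster cells; one well for each siRNA.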"}
{"gene": "Tmem165", "PubChem SID": "SID363544865", "GFP, % of control": 105, "viability (ATP), % of control": 40.4, "outcome": "inactive"}
{"gene": "Tmem165", "PubChem SID": "SID363551193", "GFP, % of control": 84.4, "viability (ATP), % of control": 62, "outcome": "inactive"}
{"gene": "Tmem165", "PubChem SID": "SID363557742", "GFP, % of control": 55.2, "viability (ATP), % of control": 47.6, "outcome": "inactive"}
{"gene": "Mtcp1", "PubChem SID": "SID363562338", "GFP, % of control": 50.8, "viability (ATP), % of control": 39.3, "outcome": "inactive"}
{"gene": "Mtcp1", "PubChem SID": "SID363567476", "GFP, % of control": 97.8, "viability (ATP), % of control": 57.8, "outcome": "inactive"}
{"gene": "Mtcp1", "PubChem SID": "SID363584833", "GFP, % of control": 81, "viability (ATP), % of control": 78.7, "outcome": "inactive"}
{"gene": "Pom121", "PubChem SID": "SID363554503", "GFP, % of control": 56.6, "viability (ATP), % of control": 27.8, "outcome": "inactive"}
{"gene": "Pom121", "PubChem SID": "SID363567950", "GFP, % of control": 63.6, "viability (ATP), % of control": 70.2, "outcome": "inactive"}
{"gene": "Pom121", "PubChem SID": "SID363586009", "GFP, % of control": 68.3, "viability (ATP), % of control": 64.4, "outcome": "inactive"}
{"gene": "Lsm10", "PubChem SID": "SID363540272", "GFP, % of control": 79.5, "viability (ATP), % of control": 73.1, "outcome": "inactive"}
{"gene": "Lsm10", "PubChem SID": "SID363542024", "GFP, % of control": 65.7, "viability (ATP), % of control": 65.5, "outcome": "inactive"}
{"gene": "Lsm10", "PubChem SID": "SID363566940", "GFP, % of control": 59.9, "viability (ATP), % of control": 65, "outcome": "inactive"}
{"gene": "Rbm42", "PubChem SID": "SID363545960", "GFP, % of control": 96.8, "viability (ATP), % of control": 62.5, "outcome": "inactive"}
{"gene": "Rbm42", "PubChem SID": "SID363549473", "GFP, % of control": 79.7, "viability (ATP), % of control": 66.5, "outcome": "inactive"}
{"gene": "Rbm42", "PubChem SID": "SID363563279", "GFP, % of control": 57.5, "viability (ATP), % of control": 72.8, "outcome": "inactive"}
{"gene": "Exosc4", "PubChem SID": "SID363569699", "GFP, % of control": 116, "viability (ATP), % of control": 89.2, "outcome": "inactive"}
{"gene": "Exosc4", "PubChem SID": "SID363576739", "GFP, % of control": 103, "viability (ATP), % of control": 88.9, "outcome": "inactive"}
{"gene": "Exosc4", "PubChem SID": "SID363578147", "GFP, % of control": 53.5, "viability (ATP), % of control": 39, "outcome": "inactive"}
{"gene": "Fam161a", "PubChem SID": "SID363542424", "GFP, % of control": 89.2, "viability (ATP), % of control": 75.3, "outcome": "inactive"}
{"gene": "Fam161a", "PubChem SID": "SID363551915", "GFP, % of control": 84.6, "viability (ATP), % of control": 100, "outcome": "inactive"}
{"gene": "Fam161a", "PubChem SID": "SID363559520", "GFP, % of control": 53.7, "viability (ATP), % of control": 57.7, "outcome": "inactive"}
{"gene": "Septin11", "PubChem SID": "SID363572302", "GFP, % of control": 71.9, "viability (ATP), % of control": 78.9, "outcome": "inactive"}
{"gene": "Septin11", "PubChem SID": "SID363574062", "GFP, % of control": 57.3, "viability (ATP), % of control": 74.8, "outcome": "inactive"}
{"gene": "Clptm1l", "PubChem SID": "SID363547186", "GFP, % of control": 73.4, "viability (ATP), % of control": 62.5, "outcome": "inactive"}
{"gene": "Clptm1l", "PubChem SID": "SID363549998", "GFP, % of control": 97.2, "viability (ATP), % of control": 89.5, "outcome": "inactive"}
{"gene": "Clptm1l", "PubChem SID": "SID363588052", "GFP, % of control": 73.1, "viability (ATP), % of control": 81.6, "outcome": "inactive"}
{"gene": "Hepacam", "PubChem SID": "SID363555472", "GFP, % of control": 50.7, "viability (ATP), % of control": 62, "outcome": "inactive"}
{"gene": "Hepacam", "PubChem SID": "SID363564133", "GFP, % of control": 65, "viability (ATP), % of control": 66.7, "outcome": "inactive"}
{"gene": "Hepacam", "PubChem SID": "SID363587679", "GFP, % of control": 76.9, "viability (ATP), % of control": 91.4, "outcome": "inactive"}

Records above whose gene name begins with C or c (3):
{"gene": "Clptm1l", "PubChem SID": "SID363547186", "GFP, % of control": 73.4, "viability (ATP), % of control": 62.5, "outcome": "inactive"}
{"gene": "Clptm1l", "PubChem SID": "SID363549998", "GFP, % of control": 97.2, "viability (ATP), % of control": 89.5, "outcome": "inactive"}
{"gene": "Clptm1l", "PubChem SID": "SID363588052", "GFP, % of control": 73.1, "viability (ATP), % of control": 81.6, "outcome": "inactive"}
